Laboratory results published in PubChem BioAssay AID2685 (National Center for Advancing Translational Sciences (NCATS), 2010).
Some of the results follow. The main result of the screen is listed elsewhere. These columns were measured beside it and carry no call. The list favours compounds with an active or inconclusive main result. Words in brackets tell the shape of the fitted curve; partial curves, single points and poor fits give uncertain potencies.

Test: qHTS Assay for Lipid Storage Modulators in Drosophila S3 Cells;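 on cell number change: cells counted by Cell Tracker Red CMTPX staining in the red channel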
Settings: BODIPY lipid droplet fluorescence, 18-24 h; for cell number change: measured here: cell count max response, cells fed with added oleic acid
In short: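 Drosophila S3 cells got compounds at several concentrations plus oleic acid (400 uM solution). Laser-scanning cytometry with 488 nm excitation read lipid droplets at 500-530 nm and cells at 575-640 nm. Percent activity was relative to 20 uM Triacsin C.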

[1] = measured here: cell number channel AC50, cells fed with added oleic acid
[2] = measured here: lipid fluorescence (Fed channel) AC50, cells fed with added oleic acid

Cc1cc(C)nc(NC(=O)Nc2ccc(F)cc2F)n1
cell number change: 12.7%
AC50 [1]: 1.64 µM [rising, partial curve, poor fit]
AC50 [2]: 0.00461 µM [rising, full curve, poor fit]

COc1ccc(/C=C(/C(=O)c2ccc(Cl)cc2Cl)n2cncn2)cc1
cell number change: -13.2%
AC50 [2]: 0.326 µM [falling, partial curve, poor fit]

CCCCOc1ccccc1C1C(C(=O)OC)=CN(CC)C=C1C(=O)OC
cell number change: -27.2%
AC50 [1]: 0.13 µM [falling, full curve, poor fit]

CN1C(=O)C(=O)N(CC(=O)N2CCc3ccccc32)C1=O
cell number change: 8.32%
AC50 [2]: 29.1 µM [rising, single point]

Cc1ccc(S(=O)(=O)CCC(=O)N2CCN(c3ccccc3F)CC2)cc1
cell number change: 20.2%
AC50 [1]: 0.00461 µM [rising, full curve, poor fit]

CCCCNC(=O)c1onc(CSc2ccc(F)c(F)c2)c1C(=O)O
cell number change: -2.45%

Cc1c(OC(C)C(=O)NCCCN2CCOCC2)ccc2c1oc(=O)c1ccccc12 (centres undefined)
cell number change: 14.1%
AC50 [2]: 29.1 µM [rising, partial curve, poor fit]

CC1CCc2nc(NC(=O)CN3CCOCC3)sc2C1 (centres undefined)
cell number change: 47.3%
AC50 [1]: 16.4 µM [rising, single point]
AC50 [2]: 20.6 µM [rising, single point]

COC(=O)c1cc2c(C)c(C)c3ccccn3c-2c1C(=O)OC
cell number change: -35.1%
AC50 [1]: 1.16 µM [rising, partial curve]
AC50 [2]: 2.06 µM [rising, partial curve]

Cc1ccc(-c2nc(CS(=O)CC(=O)NCCN3CCOCC3)c(C)o2)cc1 (centres undefined)
cell number change: 27.7%
AC50 [2]: 14.6 µM [rising, partial curve, poor fit]

CCOC(=O)N1CCC(N2Cc3cccc(C(=O)NCc4ccccn4)c3C2=O)CC1
cell number change: 19.6%
AC50 [2]: 3.66 µM [rising, single point]

CCN(CC(=O)Nc1c(F)cccc1F)C(=O)CC1CCCCC1
cell number change: -14.5%

Cn1c(=O)c2c(nc(N3CCCCCC3)n2CC(O)COc2ccccc2)n(C)c1=O (centres undefined)
cell number change: 3.45%

COC(=O)c1nnn(CC(=O)NC(=O)Nc2cccc(C)c2C)c1C(=O)OC
cell number change: 39.9%
AC50 [1]: 8.2 µM [rising, partial curve]
AC50 [2]: 8.2 µM [rising, partial curve]

O=Cc1ccccc1-c1cn(CCCOCc2ccccc2)nn1
cell number change: 14.6%
AC50 [2]: 29.1 µM [falling, single point]

Cc1cc(C)c(NC(=O)CSc2nnc(CNC(=O)c3c(F)cccc3Cl)o2)c(C)c1
cell number change: -14.4%
AC50 [1]: 0.92 µM [falling, full curve, poor fit]
AC50 [2]: 0.146 µM [falling, full curve, poor fit]

COc1ccc(NC(=O)CSc2nc3ccccc3c(=O)n2CCNC(C)=O)c(OC)c1
cell number change: -17.7%
AC50 [2]: 0.103 µM [falling, full curve, poor fit]

CN(C)S(=O)(=O)c1ccc(NC(=O)COC(=O)Cn2[nH]c(=O)c3ccccc3c2=O)cc1
cell number change: 18.9%
AC50 [1]: 0.146 µM [falling, full curve, poor fit]
AC50 [2]: 0.146 µM [falling, full curve, poor fit]

Cc1ccccc1CNC(=O)C(=O)Nc1nccs1
cell number change: 0.135%
AC50 [1]: 7.31 µM [rising, single point]
AC50 [2]: 5.8 µM [rising, single point]

CCCN(CCC)CCN1C(=O)C2C(C(=O)Nc3ccc(C)cc3)C3C=CC2(O3)C1C(=O)NC1CCCCC1 (centres undefined)
cell number change: 14.4%
AC50 [2]: 6.51 µM [rising, single point]

CCN(CCN1CCCC1)C(=O)c1cc(COc2ccccc2SC)on1
cell number change: 3.97%
AC50 [2]: 0.13 µM [rising, full curve, poor fit]

CCOC(=O)C(CC)(CCC(=O)O)c1csc(N)n1 (centres undefined)
cell number change: -40.6%
AC50 [1]: 3.26 µM [falling, full curve]
AC50 [2]: 3.66 µM [falling, full curve]

CCc1nc2ccc(C(=O)N3CCN(c4ccccc4)CC3)cc2nc1CC
cell number change: 8.25%

Cc1noc(NS(=O)(=O)c2ccc(NC(=O)CSc3n[nH]c(-c4ccccc4)n3)cc2)c1C
cell number change: 2.16%
AC50 [2]: 16.4 µM [rising, single point]

O=C(CN1c2ccccc2Sc2ccccc21)NNC(=O)Nc1ccc(Cl)cc1
cell number change: -4.51%
AC50 [2]: 2.91 µM [rising, partial curve]

CCOC(=O)N1CCC(n2c(SCC(=O)N3CCC(C)CC3)nc3ccccc3c2=O)CC1
cell number change: -27.5%

CCN(CC(=O)Nc1c(F)cccc1F)C(=O)C1=COCCO1
cell number change: -11.7%
AC50 [2]: 25.9 µM [falling, partial curve]

Cn1c(/N=C/c2ccc3c(c2)OCO3)nc2ccccc21
cell number change: -0.0225%
AC50 [2]: 5.8 µM [falling, single point]

CC1CCCC(NC(=O)COC(=O)Cc2ccc(Br)cc2)C1C (centres undefined)
cell number change: 2.88%

Cc1c(Cl)cccc1NC(=O)COC(=O)Cc1ccsc1
cell number change: -10%
AC50 [2]: 13 µM [falling, partial curve]

Cc1cc(C)c(C#N)c(N2CCN(Cc3ccccc3)CC2)n1
cell number change: -2.51%
AC50 [2]: 0.731 µM [rising, single point]

CC1=C(NCCc2ccccc2)CCC1=O
cell number change: 1.38%
AC50 [2]: 6.51 µM [falling, partial curve, poor fit]

CCNc1c(NC(=O)C2CCC(C)CC2)c(=O)oc2ccccc12 (centres undefined)
cell number change: 3.17%
AC50 [2]: 0.58 µM [falling, single point]

Cc1ccc(C)c(-n2c(SCC(N)=O)nnc2-c2ccccn2)c1
cell number change: 5.97%
AC50 [2]: 6.51 µM [falling, single point]

CCCCOC(=O)Nc1ccc(OC)cc1S(=O)(=O)N1CCOCC1
cell number change: -1.84%
AC50 [2]: 0.461 µM [rising, full curve, poor fit]

Cc1ccc(Nc2cc(C)nc3nnnn23)cc1
AC50 [1]: 0.092 µM [rising, full curve, poor fit]

CCOc1ccc(NC(=O)Nc2ccccc2C(N)=O)cc1
cell number change: -4.38%
AC50 [1]: 6.51 µM [falling, single point]
AC50 [2]: 6.51 µM [falling, single point]

Cc1c(C(=O)OCC(=O)N2CCCC2=O)oc2ccccc12
cell number change: 17.7%

Cc1oc2c(cc(NS(=O)(=O)c3ccc(Cl)cc3)c3ccccc32)c1C(=O)O
cell number change: 29.2%
AC50 [2]: 29.1 µM [rising, partial curve]

Cc1ccc(OCC(=O)N/N=C/C=C/c2ccco2)c(Br)c1
cell number change: -31.5%
AC50 [1]: 32.6 µM [falling, single point]
AC50 [2]: 11.6 µM [falling, single point]

CN(C)c1ncc(/C=C2/C(=O)NC(=S)N(C3CCCCC3)C2=O)cn1
cell number change: -21.7%
AC50 [2]: 1.84 µM [falling, single point]

CC(=O)c1cccc(NC(=O)CNC(=O)c2cc3ccccc3o2)c1
cell number change: 4.13%
AC50 [1]: 3.26 µM [rising, single point]
AC50 [2]: 29.1 µM [rising, single point]

CCn1cc(C(=O)NCCCN(C)C)c(=O)c2cc(F)c(N3CCN(C)CC3)cc21
cell number change: -19.6%
AC50 [2]: 0.146 µM [falling, full curve]

CC1(C)C(=O)OC(/C=C/c2cccc([N+](=O)[O-])c2)C(C)(C)C1=O (centres undefined)
cell number change: -20.2%
AC50 [1]: 0.58 µM [falling, single point]

C=CCn1c(-c2sccc2C)n[nH]c1=S
cell number change: 12.9%
AC50 [2]: 11.6 µM [rising, partial curve]

COc1ccc(NC(=O)C2CC(=O)N(CCc3ccc(Cl)cc3)C2)cc1 (centres undefined)
cell number change: 48.7%
AC50 [1]: 16.4 µM [rising, partial curve]

COc1ccc(-n2cnnc2SCC(=O)NC2CCS(=O)(=O)C2)cc1 (centres undefined)
cell number change: -4.45%
AC50 [2]: 0.00651 µM [falling, full curve, poor fit]

COc1ccc(/C=C(\C#N)C(=O)OCCNC(=O)c2ccncc2)cc1
AC50 [1]: 0.146 µM [falling, single point]

Cc1ccc(NC(=O)COC(=O)C2CC2C)c(S(=O)(=O)N2CCCCC2)c1 (centres undefined)
cell number change: -16%
AC50 [2]: 16.4 µM [falling, single point]

CC1Cc2ccccc2N1S(=O)(=O)c1cccc(C(=O)OCC(=O)NC2CCS(=O)(=O)C2)c1 (centres undefined)
cell number change: -312%
AC50 [1]: 18.4 µM [falling, partial curve]
AC50 [2]: 3.66 µM [falling, full curve, poor fit]

CN(c1ccc(C(=O)NCCSCc2ccc(Cl)cc2)cc1)S(=O)(=O)c1ccccc1
cell number change: 58.3%
AC50 [1]: 29.1 µM [rising, single point]

COC(=O)c1ccc(NC(=O)N2CCCC(C(=O)c3ccccc3OC)C2)cc1 (centres undefined)
cell number change: -34.7%
AC50 [1]: 1.64 µM [falling, full curve, poor fit]
AC50 [2]: 1.3 µM [falling, full curve]

CC(=O)Nc1ccc(NC(=O)C(=O)NCC(c2ccco2)N2CCc3ccccc32)cc1 (centres undefined)
cell number change: 83.2%
AC50 [1]: 29.1 µM [rising, single point]

CC(C)(C)N1C(=O)c2ccc(C(=O)Nc3ccc(-c4nc5ccccc5[nH]4)cc3)cc2C1=O
cell number change: -6.21%
AC50 [2]: 4.61 µM [falling, partial curve]

CCCCc1cc(=O)oc2cc(O)ccc12
cell number change: -46%
AC50 [1]: 9.2 µM [falling, partial curve, poor fit]
AC50 [2]: 29.1 µM [falling, single point]

O=C(COC(=O)C1=COCCO1)Nc1ccccc1Oc1ccccc1
cell number change: -180%
AC50 [1]: 29.1 µM [falling, single point]

CCCCCCCCCCCCC(NC(C)=O)(C(=O)OCC)C(=O)OCC
cell number change: 9.52%
AC50 [2]: 0.651 µM [falling, full curve]
